{"source": "PubChem BioAssay AID2685", "about": "(National Center for Advancing Translational Sciences (NCATS), 2010)", "experiment": "qHTS Assay for Lipid Storage Modulators in Drosophila S3 Cells;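 for cell number change: cells counted by Cell Tracker Red CMTPX staining in the red channel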", "details": "BODIPY lipid droplet fluorescence, 18-24 h; for cell number change: measured here: cell count max response, cells fed with added oleic acid", "in_short": "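Drosophila S3 cells got compounds at several concentrations plus oleic acid (400 uM solution). Laser-scanning cytometry with 488 nm excitation read lipid droplets at 500-530 nm and cells at 575-640 nm. Percent activity was relative to 20 uM Triacsin C.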", "key": {"[1]": {"details": "measured here: cell number channel AC50, cells fed with added oleic acid"}, "[2]": {"details": "measured here: lipid fluorescence (Fed channel) AC50, cells fed with added oleic acid"}}, "note": "Some of the results follow. Further columns of the screen follow, without active or inactive calls. Most of these compounds were active or inconclusive in the main read-out, so they are no random draw. Words in brackets tell the shape of the fitted curve; partial curves, single points and poor fits give uncertain potencies.", "data": [{"smiles": "Cc1ccc(NC(=O)c2ccc(NCCN)c([N+](=O)[O-])c2)cc1Cl", "values": [{"measurement": "cell number change", "result": -35.2, "unit": "%"}, {"measurement": "AC50", "setting": "[1]", "result": "0.461 µM [falling, single point]"}, {"measurement": "AC50", "setting": "[2]", "result": "32.6 µM [falling, partial curve, poor fit]"}]}, {"smiles": "CCCCNS(=O)(=O)c1cccc(S(=O)(=O)N2CCCC2)c1", "values": [{"measurement": "cell number change", "result": 21.1, "unit": "%"}, {"measurement": "AC50", "setting": "[1]", "result": "0.00461 µM [rising, full curve, poor fit]"}]}, {"smiles": "CCOC(=O)CNC(=O)N1CCCC(N(C)CCc2ccccc2)C1", "note": "(configuration not stated)", "values": [{"measurement": "cell number change", "result": 30.1, "unit": "%"}, {"measurement": "AC50", "setting": "[1]", "result": "0.0291 µM [rising, full curve, poor fit]"}]}, {"smiles": "O=C(NCc1nc2ccccc2[nH]1)C1=C[C@@H](c2ccccc2)C[C@@H](OCc2ccc(CO)cc2)O1", "values": [{"measurement": "cell number change", "result": -0.265, "unit": "%"}, {"measurement": "AC50", "setting": "[2]", "result": "2.06 µM [rising, full curve, poor fit]"}]}, {"smiles": "CCOc1ccc(-n2c(=S)sc3c(=O)[nH]c(SCC(=O)N4CCC(C)CC4)nc32)cc1", "values": [{"measurement": "cell number change", "result": 1.21, "unit": "%"}, {"measurement": "AC50", "setting": "[2]", "result": "32.6 µM [falling, single point]"}]}, {"smiles": "CCN(CC)CCN(C(=O)CCS(=O)(=O)c1ccccc1)c1nc2cc3c(cc2s1)OCO3", "values": [{"measurement": "cell number change", "result": -26.6, "unit": "%"}]}, {"smiles": "Cc1ccc(NC(=O)c2ccc(Nc3ccccc3F)nc2)cc1", "values": [{"measurement": "cell number change", "result": 11.6, "unit": "%"}, {"measurement": "AC50", "setting": "[1]", "result": "4.61 µM [falling, single point]"}]}, {"smiles": "C=CCOC(=O)C(C#N)c1nc2ccccc2nc1N1CCN(Cc2ccccc2)CC1", "note": "(configuration not stated)", "values": [{"measurement": "cell number change", "result": 25.4, "unit": "%"}, {"measurement": "AC50", "setting": "[2]", "result": "0.58 µM [rising, single point]"}]}, {"smiles": "COc1ccccc1CC(=O)N(CCC1=CCCCC1)c1c(N)n(Cc2ccccc2)c(=O)[nH]c1=O", "values": [{"measurement": "cell number change", "result": -21.7, "unit": "%"}, {"measurement": "AC50", "setting": "[1]", "result": "0.00517 µM [falling, full curve, poor fit]"}, {"measurement": "AC50", "setting": "[2]", "result": "2.91 µM [falling, partial curve, poor fit]"}]}, {"smiles": "N/C(=N\\OC(=O)CCCOc1ccccc1)c1ccccc1", "values": [{"measurement": "cell number change", "result": 15.1, "unit": "%"}, {"measurement": "AC50", "setting": "[2]", "result": "0.103 µM [falling, full curve, poor fit]"}]}, {"smiles": "CC(C)(C)C(=O)c1sc(Nc2ccccc2)nc1N", "values": [{"measurement": "cell number change", "result": 6.34, "unit": "%"}, {"measurement": "AC50", "setting": "[1]", "result": "4.11 µM [rising, single point]"}, {"measurement": "AC50", "setting": "[2]", "result": "6.51 µM [rising, partial curve, poor fit]"}]}, {"smiles": "CC(/C=N/NC(=O)Cn1nccc1C)=C\\c1ccc(C(C)C)cc1", "values": [{"measurement": "cell number change", "result": 1.11, "unit": "%"}, {"measurement": "AC50", "setting": "[1]", "result": "6.51 µM [falling, single point]"}, {"measurement": "AC50", "setting": "[2]", "result": "29.1 µM [falling, single point]"}]}, {"smiles": "O=C(O)CN1C(=O)c2cccc(Oc3ccc(Cl)cc3)c2C1=O", "values": [{"measurement": "cell number change", "result": -2.42, "unit": "%"}, {"measurement": "AC50", "setting": "[2]", "result": "23.1 µM [falling, single point]"}]}, {"smiles": "COc1ccc(NC(=O)CSc2nc3ccccc3c(=O)n2CCCN2CCCCC2)c(OC)c1", "values": [{"measurement": "cell number change", "result": -16.6, "unit": "%"}]}, {"smiles": "Cc1ccc(-n2c(=O)[nH]c3c(C(N)=O)nc(-c4ccc(C)o4)nc32)cc1", "values": [{"measurement": "cell number change", "result": -2.64, "unit": "%"}, {"measurement": "AC50", "setting": "[2]", "result": "20.6 µM [falling, single point]"}]}]}
